Experimental data as given in publication PMC9723642.
For at least one entry, the source does not settle the construct or the ends of the probe. Results from cells or extracts need not show a direct contact. The comparison behind a weaker result is the experiment's own reference, which may not be listed here. For part of these data: Protein sequences can lack the tags named with them. For part of these data: At least one verdict was read from the data and is not stated in words by the source.

Protein sequences, listed by entry. Tags and fused reporters are not part of them. Residues count along the entry.
UniProt P19338, 2-710: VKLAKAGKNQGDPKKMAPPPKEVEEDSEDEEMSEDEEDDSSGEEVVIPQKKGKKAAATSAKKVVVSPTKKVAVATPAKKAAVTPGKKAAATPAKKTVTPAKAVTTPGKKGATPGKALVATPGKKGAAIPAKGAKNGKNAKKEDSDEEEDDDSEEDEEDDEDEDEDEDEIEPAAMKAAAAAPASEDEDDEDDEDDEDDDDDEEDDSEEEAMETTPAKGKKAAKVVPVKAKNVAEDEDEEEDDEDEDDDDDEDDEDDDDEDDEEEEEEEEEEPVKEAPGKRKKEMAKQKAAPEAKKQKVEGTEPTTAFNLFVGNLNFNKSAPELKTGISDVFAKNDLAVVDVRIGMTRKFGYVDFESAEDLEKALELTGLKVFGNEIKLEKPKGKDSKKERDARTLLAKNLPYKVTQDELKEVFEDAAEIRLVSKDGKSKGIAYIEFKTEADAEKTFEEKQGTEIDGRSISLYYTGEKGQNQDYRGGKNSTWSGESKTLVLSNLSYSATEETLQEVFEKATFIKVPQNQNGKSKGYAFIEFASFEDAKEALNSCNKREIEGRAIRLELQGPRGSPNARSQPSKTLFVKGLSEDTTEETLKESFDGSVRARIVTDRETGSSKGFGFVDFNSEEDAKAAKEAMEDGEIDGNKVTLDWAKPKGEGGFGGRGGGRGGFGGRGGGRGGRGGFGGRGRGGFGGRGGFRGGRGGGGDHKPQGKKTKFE

Columns and labels:
Test in all cases: pull-down
[1] = target: T1, Nsr1 from hmt1Δ strain (Saccharomyces cerevisiae (Y32 hmt1Δ)) (UniProt P27476); settings: hmt1Δ extract vs HMT1wt; pull-down: RNA folded in 100 mM KCl, 90 min at room temperature, washes 200-800 mM KCl; protein in an extract; label: 3' biotin-TEG
T1 sequence (looked up, limits assumed): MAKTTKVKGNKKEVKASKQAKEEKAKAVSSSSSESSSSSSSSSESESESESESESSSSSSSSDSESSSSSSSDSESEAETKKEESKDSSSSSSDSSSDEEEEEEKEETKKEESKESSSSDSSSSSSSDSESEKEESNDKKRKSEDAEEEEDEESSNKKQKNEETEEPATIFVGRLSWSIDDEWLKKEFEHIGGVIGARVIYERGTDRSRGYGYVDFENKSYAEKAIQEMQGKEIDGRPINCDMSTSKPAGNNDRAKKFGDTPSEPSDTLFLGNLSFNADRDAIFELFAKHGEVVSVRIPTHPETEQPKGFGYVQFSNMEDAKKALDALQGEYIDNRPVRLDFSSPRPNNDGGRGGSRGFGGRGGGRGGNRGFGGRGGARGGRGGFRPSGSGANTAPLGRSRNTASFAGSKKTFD

[2] = target: T2, Nsr1 wild type (Saccharomyces cerevisiae (Y32)) (UniProt P27476); settings: 800 mM KCl wash, pull-down: RNA folded in 100 mM KCl, 90 min at room temperature, washes 200-800 mM KCl, protein in an extract, label: 3' biotin-TEG
T2 sequence (looked up, limits assumed): T1 sequence (looked up, limits assumed)

[3] = target: endogenous NCL (H1299) (Homo sapiens) (UniProt P19338); settings: pull-down: RNA folded in 100 mM KCl, 90 min at room temperature, washes 200-800 mM KCl, label: 3' biotin-TEG

| Sequence | binding result [1] | binding result [2] | binding result ([3]; cells treated with MS023, dose-dependent decrease, protein in an …) | binding result ([3]; cells treated with MTA, dose-dependent decrease, protein in an extract) | binding result ([3]; untreated control (DMSO) cells, protein in an extract) | binding result ([2]; residual binding) |
| --- | --- | --- | --- | --- | --- | --- |
| GGGGCAGGAGCAGGAGGA [GQ] | binds more weakly | binds | binds more weakly | binds more weakly | binds |  |
| GAGGCAGUAGCAGUAGAA [GM] |  |  |  |  |  | binds more weakly |
